Test results taken from PMC10876760.
Results are given in words; binding and its absence hold for the method and conditions named. In cells and extracts the contact can be indirect. Some results given as binding are weak or reduced against the parent protein; the word gives no strength. Where a sequence is shown, tags or fusion partners need not be part of it.

Protein sequences, listed by entry. Tags and fused reporters are not part of them.
UniProt P53804: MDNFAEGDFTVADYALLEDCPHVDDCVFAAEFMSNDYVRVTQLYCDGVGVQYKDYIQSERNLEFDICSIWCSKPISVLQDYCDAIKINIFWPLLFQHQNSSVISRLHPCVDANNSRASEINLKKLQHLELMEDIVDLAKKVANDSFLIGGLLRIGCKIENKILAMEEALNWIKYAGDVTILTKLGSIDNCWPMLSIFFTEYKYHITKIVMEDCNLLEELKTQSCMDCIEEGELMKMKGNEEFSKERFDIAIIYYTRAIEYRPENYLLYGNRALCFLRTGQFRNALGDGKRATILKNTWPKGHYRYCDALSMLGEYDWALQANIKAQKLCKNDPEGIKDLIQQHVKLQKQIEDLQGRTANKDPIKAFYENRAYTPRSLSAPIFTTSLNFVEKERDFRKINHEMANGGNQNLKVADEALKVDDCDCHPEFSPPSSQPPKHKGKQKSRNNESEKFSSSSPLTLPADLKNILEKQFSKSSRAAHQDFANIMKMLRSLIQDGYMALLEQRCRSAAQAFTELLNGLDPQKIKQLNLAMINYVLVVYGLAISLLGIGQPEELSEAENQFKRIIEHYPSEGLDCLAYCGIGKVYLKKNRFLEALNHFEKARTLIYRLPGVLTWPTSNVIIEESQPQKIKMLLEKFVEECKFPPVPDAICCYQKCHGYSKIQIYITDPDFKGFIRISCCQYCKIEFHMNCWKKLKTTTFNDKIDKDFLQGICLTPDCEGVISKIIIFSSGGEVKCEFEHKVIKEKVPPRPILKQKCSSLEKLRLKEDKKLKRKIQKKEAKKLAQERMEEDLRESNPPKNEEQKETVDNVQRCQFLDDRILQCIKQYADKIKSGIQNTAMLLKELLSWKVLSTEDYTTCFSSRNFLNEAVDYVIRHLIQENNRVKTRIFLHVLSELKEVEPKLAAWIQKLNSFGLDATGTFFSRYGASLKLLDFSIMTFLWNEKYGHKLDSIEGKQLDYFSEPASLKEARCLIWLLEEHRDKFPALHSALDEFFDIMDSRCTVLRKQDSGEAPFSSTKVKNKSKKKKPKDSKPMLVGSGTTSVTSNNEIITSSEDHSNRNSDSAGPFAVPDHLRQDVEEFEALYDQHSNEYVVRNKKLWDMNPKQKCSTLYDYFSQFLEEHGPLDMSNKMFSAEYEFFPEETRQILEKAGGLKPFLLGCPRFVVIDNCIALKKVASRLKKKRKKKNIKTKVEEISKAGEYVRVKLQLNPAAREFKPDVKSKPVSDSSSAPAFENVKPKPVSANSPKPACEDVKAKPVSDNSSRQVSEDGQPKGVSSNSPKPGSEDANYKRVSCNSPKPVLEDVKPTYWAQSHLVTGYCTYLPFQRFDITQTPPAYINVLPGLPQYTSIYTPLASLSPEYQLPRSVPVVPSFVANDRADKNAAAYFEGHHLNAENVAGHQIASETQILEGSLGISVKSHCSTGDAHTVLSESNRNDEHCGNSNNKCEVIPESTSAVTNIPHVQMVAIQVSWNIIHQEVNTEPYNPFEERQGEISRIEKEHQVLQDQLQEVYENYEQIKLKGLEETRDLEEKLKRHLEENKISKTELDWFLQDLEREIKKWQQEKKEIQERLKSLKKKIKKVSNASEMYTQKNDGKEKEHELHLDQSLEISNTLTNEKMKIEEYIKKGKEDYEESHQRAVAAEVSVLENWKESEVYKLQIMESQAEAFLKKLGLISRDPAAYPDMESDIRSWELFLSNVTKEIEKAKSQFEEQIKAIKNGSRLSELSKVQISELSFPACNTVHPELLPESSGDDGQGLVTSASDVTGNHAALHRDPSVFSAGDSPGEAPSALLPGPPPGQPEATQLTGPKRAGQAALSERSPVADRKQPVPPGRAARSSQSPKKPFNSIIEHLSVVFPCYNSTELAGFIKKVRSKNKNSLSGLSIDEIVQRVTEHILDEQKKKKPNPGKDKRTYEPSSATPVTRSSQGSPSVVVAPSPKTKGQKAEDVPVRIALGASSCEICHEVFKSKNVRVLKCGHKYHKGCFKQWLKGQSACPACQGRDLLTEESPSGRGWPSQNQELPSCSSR

Target: HA-TTC3 (UniProt P53804)
Experiment: co-IP; LX-2 cells co-transfected with Flag-KIF18A and HA-TTC3 plasmids; IP with anti-Flag or with anti-HA antibody, Western blot

binding: binds
B1: Flag-KIF18A (protein, UniProt Q8NI77 1-898)
chain: MSVTEEDLCHHMKVVVRVRPENTKEKAAGFHKVVHVVDKHILVFDPKQEEVSFFHGKKTTNQNVIKKQNKDLKFVFDAVFDETSTQSEVFEHTTKPILRSFLNGYNCTVLAYGATGAGKTHTMLGSADEPGVMYLTMLHLYKCMDEIKEEKICSTAVSYLEVYNEQIRDLLVNSGPLAVREDTQKGVVVHGLTLHQPKSSEEILHLLDNGNKNRTQHPTDMNATSSRSHAVFQIYLRQQDKTASINQNVRIAKMSLIDLAGSERASTSGAKGTRFVEGTNINRSLLALGNVINALADSKRKNQHIPYRNSKLTRLLKDSLGGNCQTIMIAAVSPSSVFYDDTYNTLKYANRAKDIKSSLKSNVLNVNNHITQYVKICNEQKAEILLLKEKLKAYEEQKAFTNENDQAKLMISNPQEKEIERFQEILNCLFQNREEIRQEYLKLEMLLKENELKSFYQQQCHKQIEMMCSEDKVEKATGKRDHRLAMLKTRRSYLEKRREEELKQFDENTNWLHRVEKEMGLLSQNGHIPKELKKDLHCHHLHLQNKDLKAQIRHMMDLACLQEQQHRQTEAVLNALLPTLRKQYCTLKEAGLSNAAFESDFKEIEHLVERKKVVVWADQTAEQPKQNDLPGISVLMTFPQLGPVQPIPCCSSSGGTNLVKIPTEKRTRRKLMPSPLKGQHTLKSPPSQSVQLNDSLSKELQPIVYTPEDCRKAFQNPSTVTLMKPSSFTTSFQAISSNINSDNCLKMLCEVAIPHNRRKECGQEDLDSTFTICEDIKSSKCKLPEQESLPNDNKDILQRLDPSSFSTKHSMPVPSMVPSYMAMTTAAKRKRKLTSSTSNSSLTADVNSGFAKRVRQDNSSEKHLQENKPTMEHKRNICKINPSMVRKFGRNISKGNLR
